Values of other authors as cited in patent US11434195B2, “Compositions and methods for treatment of central nervous system tumors” (UNIVERSITY OF FLORIDA RESEARCH FOUNDATION, INC., priority 2017, dated 2022).
At least one compound was matched to its structure with a doubt left.

Tested on: GBM
Details: GBM patients; cited from earlier work

What does the source list for Cn1nnc2c(C(N)=O)ncn2c1=O [temozolomide]?
Increase in overall survival relative to radiotherapy alone: 2.5 month; Increase in progression-free survival relative to radiotherapy alone: 1.9 month
